Source: article PMC9357983
Results are given in words; binding and its absence hold for the method and conditions named.

Biological target: AtCDC20.1 WD40 (Arabidopsis thaliana CDC20.1 C-terminal construct with the WD40 domain and IR motif) (Arabidopsis thaliana) (UniProt Q9SZA4)
Test: SEC + SEC-MALS; Superdex 75 HR10/30, 20°C, 25 mM Tris pH 8.0, 150 mM NaCl, 5 mM β-mercaptoethanol, 0.5 ml/min; 100 μL of 1 mg/ml protein injected; both purified

- binding: no binding (tested: 1 mg/ml injected)
B1: AtCDC20.1 WD40 (Arabidopsis thaliana CDC20.1 C-terminal construct with the WD40 domain and IR motif) (domain or fragment, UniProt Q9SZA4 120-457)
chain: PRRYIPQTSERTLDAPDIVDDFYLNLLDWGSANVLAIALDHTVYLWDASTGSTSELVTIDEEKGPVTSINWAPDGRHVAVGLNNSEVQLWDSASNRQLRTLKGGHQSRVGSLAWNNHILTTGGMDGLIINNDVRIRSPIVETYRGHTQEVCGLKWSGSGQQLASGGNDNVVHIWDRSVASSNSTTQWLHRLEEHTSAVKALAWCPFQANLLATGGGGGDRTIKFWNTHTGACLNSVDTGSQVCSLLWSKNERELLSSHGFTQNQLTLWKYPSMVKMAELTGHTSRVLYMAQSPDGCTVASAAGDETLRFWNVFGVPETAKKAAPKAVSEPFSHVNRIR
